The results in this text go back to EP4714976A1.

By UniProt entry, the sequences of proteins in these tests, tags left out. Where a name states a change or a piece, a line headed by the entry shows the natural chain unless it says otherwise. Chains listed by the source or under a name are the forms on record and can include a tag or linker.
human FGFR2b (Kaixia Biotechnology, catalog number FGR-HM1BB) (P21802, form named): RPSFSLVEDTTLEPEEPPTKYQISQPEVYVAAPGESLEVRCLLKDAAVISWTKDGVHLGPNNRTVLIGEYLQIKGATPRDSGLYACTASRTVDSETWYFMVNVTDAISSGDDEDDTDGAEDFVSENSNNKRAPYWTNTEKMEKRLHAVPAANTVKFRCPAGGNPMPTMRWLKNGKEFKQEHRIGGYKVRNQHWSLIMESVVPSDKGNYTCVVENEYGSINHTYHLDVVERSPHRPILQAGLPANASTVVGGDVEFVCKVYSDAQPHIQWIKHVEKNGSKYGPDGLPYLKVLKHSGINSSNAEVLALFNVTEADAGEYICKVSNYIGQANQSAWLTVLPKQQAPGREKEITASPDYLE

Substitutions are numbered along the chain they refer to. No constants are given. Whether binding was seen depends on the method and setting. Some results given as binding are weak or reduced against the parent protein; the word gives no strength. Where a sequence is shown, tags or fusion partners need not be part of it.

For the assay, the target named is human FGFR2b (Kaixia Biotechnology, catalog number FGR-HM1BB) (human) (UniProt P21802). The assay is described as follows: ELISA, antibody 1ug/mL. In general terms: An ELISA detects its analyte on a solid surface through an enzyme-linked reagent.

B1: 1C10 scFv-Fc (Fc fusion)
chain: QVQLQQSGAELVKPGASVKMSCKASGYTFRYYNMHWVKRTPGQGLEWIGLIYPDNGDTSYNQKFKGKATLTADTSSSTAYMQLSSLTSEDSAVYYCARGGLDYWGQGTSLTVSSGGGGSGGGGSGGGGSDIVMTQSPASLSASVGETVTITCRASGNIHNYLAWYQQKQGKSPQLLVYNAKTLADGVPSRFSGSGSGTQYSLKINSLQPEDFGSYYCQHFWSTPYTFGGGTKLEMKESKYGPPCPPCPAPEAAGGPSVFLFPPKPKDTLMISRTPEVTCVVVDVSQEDPEVQFNWYVDGVEVHNAKTKPREEQFNSTYRVVSVLTVLHQDWLNGKEYKCKVSNKGLPSSIEKTISKAKGQPREPQVYTLPPSQEEMTKNQVSLTCLVKGFYPSDIAVEWESNGQPENNYKTTPPVLDSDGSFFLYSKLTVDKSRWQEGNVFSCSVMHEALHNHYTQKSLSLSLG
In the case of B1, the binding result is on record as “binds”.

B2: 1B8 scFv-Fc (Fc fusion)
chain: QIQLQQSGAELVKPGASVKMSCKASGYTFASYNLHWVKQTPGQGLEWIGLIYPENGDTSYNQKFKGKATLTADTSSTTAYIQLSSLTSEDSAVYFCARGGFDYWGQGTSLTVSSGGGGSGGGGSGGGGSDIKMTQSPASLSASVGETVTITCGASENIYGALNWYQRKQGKSPQLLIYGATNLADGMSSRFSGSGSGRQYSLKISSLHPDDVATYYCQNVLSTPYTFGGGTKLEIKESKYGPPCPPCPAPEAAGGPSVFLFPPKPKDTLMISRTPEVTCVVVDVSQEDPEVQFNWYVDGVEVHNAKTKPREEQFNSTYRVVSVLTVLHQDWLNGKEYKCKVSNKGLPSSIEKTISKAKGQPREPQVYTLPPSQEEMTKNQVSLTCLVKGFYPSDIAVEWESNGQPENNYKTTPPVLDSDGSFFLYSKLTVDKSRWQEGNVFSCSVMHEALHNHYTQKSLSLSLG
Turning to B2, the binding result is “binds”.

B3: 1A3 scFv-Fc (Fc fusion)
chain: B2 chain with I2V, S7P, T74K, T77S, S109T, S114Q, K132Q
On to B3, for which the binding entry is “binds”.

B4: 1G6 scFv-Fc (Fc fusion)
chain: EIQLQQSGAELVKPGASVKMSCKASGYTFRYYNMHWVKRTPGQGLEWIGLIYPDNGDTSYNQKFKGKATLTADTSSSTAYMQLSSLTSEDSAVYYCARGGLDYWGQGTSLTVSSGGGGSGGGGSGGGGSNIVMTQSHKFMSTSVGDRVSITCKASQDVNTDVAWYQQKPGQSPKLLIYSASYRYTGVPTRFTGSGSGTDFTFTISGVQAEDLADYYCQQHYNTPYTFGGGTKLELKESKYGPPCPPCPAPEAAGGPSVFLFPPKPKDTLMISRTPEVTCVVVDVSQEDPEVQFNWYVDGVEVHNAKTKPREEQFNSTYRVVSVLTVLHQDWLNGKEYKCKVSNKGLPSSIEKTISKAKGQPREPQVYTLPPSQEEMTKNQVSLTCLVKGFYPSDIAVEWESNGQPENNYKTTPPVLDSDGSFFLYSKLTVDKSRWQEGNVFSCSVMHEALHNHYTQKSLSLSLG
For B4, the binding result is “binds”.

B5: 3A3 scFv-Fc (Fc fusion)
chain: QVQLQQSGAELVKPGASVKMSCKASGYTFTTYNIHWVRQTPGQGLEWIGLIYPDNGDTSYNQKFKAKATLTADKSSSTAYMHLSSLTSEDSAVYYCARGGFDYWGQGTTLTVSSGGGGSGGGGSGGGGSDIVMTQSHKFMSTSVGDRVSITCKASQDVNTDVSWYQQKPGQSPKLLIYSASYRYTGVPTRFTGSGSGTDFTFTISGVQAEDLADYYCQQHYNTPYTFGGGTRLEIKESKYGPPCPPCPAPEAAGGPSVFLFPPKPKDTLMISRTPEVTCVVVDVSQEDPEVQFNWYVDGVEVHNAKTKPREEQFNSTYRVVSVLTVLHQDWLNGKEYKCKVSNKGLPSSIEKTISKAKGQPREPQVYTLPPSQEEMTKNQVSLTCLVKGFYPSDIAVEWESNGQPENNYKTTPPVLDSDGSFFLYSKLTVDKSRWQEGNVFSCSVMHEALHNHYTQKSLSLSLG
As for B5, the binding entry is listed as “binds”.

B6: 2B2 scFv-Fc (Fc fusion)
chain: QLQLQQSGAELVKPGASVKMSCKASGYTFASYNLHWVKQTPGQGLEWIGLIYPENGDTSYNQKFKDKATLTADKSSTTAYIQLSSLASEDSAVYFCARGGFDYWGQGTTLTVSSGGGGSGGGGSGGGGSDIVMTQSQKFMSTSVGDRVSVTCKASQNVGTNVAWYQQKPGQSPKALIYSASYRYSGVPDRFTGSGSGTDYTLTISSVQAEDLALYYCQQHYSTPYTFGGGTKLELKESKYGPPCPPCPAPEAAGGPSVFLFPPKPKDTLMISRTPEVTCVVVDVSQEDPEVQFNWYVDGVEVHNAKTKPREEQFNSTYRVVSVLTVLHQDWLNGKEYKCKVSNKGLPSSIEKTISKAKGQPREPQVYTLPPSQEEMTKNQVSLTCLVKGFYPSDIAVEWESNGQPENNYKTTPPVLDSDGSFFLYSKLTVDKSRWQEGNVFSCSVMHEALHNHYTQKSLSLSLG
Consider B6, for which the binding result is on record as “binds”.

B7: 3F11 scFv-Fc (Fc fusion)
chain: QVQLQQSGAELVKPGASVKMSCKASGYTFAPYNIHWVRQTPGQGLEWIGLIYPDNGDTSYNQKFKAKATLTADKSSSTAYMQLSSLTSEDSAVYYCARGGFDYWGQGTSLTVSSGGGGSGGGGSGGGGSDIVMTQSQKFMSTSVGDRVSVTCKASQNVGTNVAWYQQKPGQSPKALIYSASYRYSGVPDRFTGSGSGTDFTLTISNVQSEDLAEYFCQQHYSTPFTFGSGTKLEIKESKYGPPCPPCPAPEAAGGPSVFLFPPKPKDTLMISRTPEVTCVVVDVSQEDPEVQFNWYVDGVEVHNAKTKPREEQFNSTYRVVSVLTVLHQDWLNGKEYKCKVSNKGLPSSIEKTISKAKGQPREPQVYTLPPSQEEMTKNQVSLTCLVKGFYPSDIAVEWESNGQPENNYKTTPPVLDSDGSFFLYSKLTVDKSRWQEGNVFSCSVMHEALHNHYTQKSLSLSLG
Turning to B7, the binding entry is on record as “binds”.

B8: 1D7 scFv-Fc (Fc fusion)
chain: QIQLQQSGAELVKPGASVKMSCKASGYTFRYYNMHWVKRTPGQGLEWIGLIYPDNGDTSYNQKFKGKATLTADTSSSTAYMQLSSLTSEDSAVYYCARGGLDYWGQGTSLTVSSGGGGSGGGGSGGGGSDIQMTQSPSSMSASLGDRITITCQATQDIVKNLNWYQQKPGKPPSFLIYYATELAEGVPSRFSGSGSGSDYSLTISNLESEDFADYYCLQFYEFPLTFGAGTKLELKESKYGPPCPPCPAPEAAGGPSVFLFPPKPKDTLMISRTPEVTCVVVDVSQEDPEVQFNWYVDGVEVHNAKTKPREEQFNSTYRVVSVLTVLHQDWLNGKEYKCKVSNKGLPSSIEKTISKAKGQPREPQVYTLPPSQEEMTKNQVSLTCLVKGFYPSDIAVEWESNGQPENNYKTTPPVLDSDGSFFLYSKLTVDKSRWQEGNVFSCSVMHEALHNHYTQKSLSLSLG
On to B8, for which the binding entry is “binds”.
